# Some entries share one result that the patent states for a list of compounds.
# The chains behind the UniProt entries cited, without tags or fusion partners. Residues count along the entry.
# UniProt P17787, 26-502: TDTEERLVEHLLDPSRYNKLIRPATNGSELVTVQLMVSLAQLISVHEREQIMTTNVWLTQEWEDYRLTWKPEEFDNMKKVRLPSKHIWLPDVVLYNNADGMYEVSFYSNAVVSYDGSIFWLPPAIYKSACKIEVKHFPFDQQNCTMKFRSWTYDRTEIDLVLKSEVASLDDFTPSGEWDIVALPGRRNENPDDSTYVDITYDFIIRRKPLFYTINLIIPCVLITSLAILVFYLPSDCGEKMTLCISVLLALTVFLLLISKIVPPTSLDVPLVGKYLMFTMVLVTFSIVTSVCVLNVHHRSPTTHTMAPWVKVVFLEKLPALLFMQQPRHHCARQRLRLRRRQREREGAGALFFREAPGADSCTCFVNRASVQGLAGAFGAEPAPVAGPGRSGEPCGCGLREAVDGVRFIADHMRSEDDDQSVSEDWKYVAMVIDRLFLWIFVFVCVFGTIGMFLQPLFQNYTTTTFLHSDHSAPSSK
# UniProt P43681, 29-627 limits assumed: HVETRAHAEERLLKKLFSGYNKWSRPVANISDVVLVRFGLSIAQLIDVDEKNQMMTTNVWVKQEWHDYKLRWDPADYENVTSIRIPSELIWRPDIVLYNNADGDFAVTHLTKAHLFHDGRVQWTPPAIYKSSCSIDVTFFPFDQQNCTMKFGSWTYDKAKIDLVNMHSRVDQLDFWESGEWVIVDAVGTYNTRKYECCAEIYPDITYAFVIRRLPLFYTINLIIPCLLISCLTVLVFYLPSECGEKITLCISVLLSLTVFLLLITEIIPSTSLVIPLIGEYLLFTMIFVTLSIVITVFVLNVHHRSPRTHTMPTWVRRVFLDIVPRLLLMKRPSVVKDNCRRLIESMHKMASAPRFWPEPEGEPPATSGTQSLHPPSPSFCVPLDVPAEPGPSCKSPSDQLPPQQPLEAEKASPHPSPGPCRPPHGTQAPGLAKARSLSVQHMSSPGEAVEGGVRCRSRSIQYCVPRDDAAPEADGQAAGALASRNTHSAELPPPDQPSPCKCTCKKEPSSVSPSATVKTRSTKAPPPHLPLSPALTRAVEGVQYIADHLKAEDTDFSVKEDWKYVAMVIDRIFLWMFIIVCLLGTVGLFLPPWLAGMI
# Biological target: T1, human α4β2 nicotinic acetylcholine receptor subtype expressed in HEK-293 cells (Homo sapiens, UniProt P17787+P43681)
# T1 construct: expressed in transfected cells
# Experiment: Calcium flux assay (FLIPR) in HEK-293 cells expressing human α4β2
# Assay type: cell-based
# Settings: in the presence of Compound 1 at 10 μM
# Procedure: Calcium Flux Assays Using Cells Expressing nAChR Subtypes
# Human embryonic kidney (HEK) 293 cells stably expressing human α4β2 or α3β4 combinations are grown to confluency in 162 cm^2 tissue culture flasks in DMEM media supplemented with 10% FBS and 25 μg/ml zeocin and 200 μg/ml hygromycin B. IMR-32 neuroblastoma cells (ATCC) are grown to confluency in 162 cm^2 tissue culture flasks in minimum essential media supplemented with 10% FBS and 1 mM sodium pyruvate, 1% non-essential amino acids and 1% antibiotic-antimycotic. […] Calcium flux was measured using calcium-3 assay kit (Molecular Devices, Sunnyvale, Calif.) or fluo-4 (Invitrogen). […] The cells were loaded with 100 μl of the dye per well and incubated at room temperature for up to one hour for HEK 293 clonal stable cell lines or 30 minutes-45 minutes at 37° C. for IMR-32 cells Fluorescence measurements were read simultaneously from all the wells by a Fluorometic Imaging Plate Reader (FLIPR) at an excitation wavelength of 480 nm and an emission wavelength of 520 nm. Baseline fluorescence was measured for the first 6 seconds at which 3× concentrations of modulator/test compounds were added to the cell plate at 50 μl and incubated for five minutes. The fluorescence intensity was captured every second for the first 1 minute followed by every 5 seconds for an additional 4 minutes. […]
smiles,measurement,value
"Clc1ccc(OC[C@H]2CCN2)cn1 [Compound A, 5-[(2R)-azetidin-2-ylmethoxy]-2-chloropyridine]",shift to the left of the agonist concentration-response (EC50),10-100 fold
